PubChem BioAssay AID1508588 | Peter MacCallum Cancer Centre – 2020
Shown is an unselected part of about 18,000 reagents. Over the whole deposit, 790 (4.4%) were called active. 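Calls rest on a combination of fold-change classes in drug and vehicle arms, not all shown here.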 Reagents against one gene are numbered here.

Aim: 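Genome-wide search for knock-downs that heighten vemurafenib action in melanoma cells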 (primary screen)
System: human WM266.4 melanoma cells (BRAF V600 mutant)
Reagent: siRNA pool against human genes, 40 nM
Duration: 96 h from transfection to read-out
Conditions: vemurafenib 300 nM (about IC25), added 48 h after transfection, for 48 h; comparison arm got DMSO vehicle only
Measured: 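Cell gain (DAPI nuclei at end minus before drug, mean of two replicates) and medium lactate by absorbance per cell, both as ratio to non-targeting siRNA, also grouped into fold-change classes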
Scale: cell gain with vemurafenib: higher = more cell gain than with non-targeting siRNA; lactate per cell with vemurafenib: higher = more lactate made per cell
Call rule: 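a knock-down counts as enhancing when its fold-change classes with vehicle and with vemurafenib, taken together, show a stronger drug effect on cell gain or lactate per cell; exact class pairs not stated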
Calls: active = enhances vemurafenib effect; inactive = no enhancement seen

no.	gene	pool no.	cell gain with vemurafenib	lactate per cell with vemurafenib	activity call
1	CDHR1 (GeneID 92211)	1	0.53	0.92	inactive
2	LRRC23 (GeneID 10233)	1	0.88	1	inactive
3	ACMSD (GeneID 130013)	1	0.41	1.06	inactive
4	NKPD1 (GeneID 284353)	1	0.41	1.19	inactive
5	FANCD2OS (GeneID 115795)	1	1.09	1.33	inactive
6	KIF14 (GeneID 9928)	1	0.07	1.84	inactive
7	CYP2U1 (GeneID 113612)	1	0.31	0.82	inactive
8	LMX1A (GeneID 4009)	1	0.65	1.09	inactive
9	TAAR8 (GeneID 83551)	1	0.88	0.75	inactive
10	DLST (GeneID 1743)	1	0.85	0.8	inactive
11	PDE3A (GeneID 5139)	1	0.7	0.86	inactive
12	ITIH6 (GeneID 347365)	1	1.01	0.58	inactive
13	DYNC1LI2 (GeneID 1783)	1	0.98	0.8	inactive
14	CTLA4 (GeneID 1493)	1	0.65	0.94	inactive
15	INSYN2A (GeneID 642938)	1	0.59	1.15	inactive
16	LHX1 (GeneID 3975)	1	0.79	0.93	inactive
17	ZBTB49 (GeneID 166793)	1	0.8	0.54	inactive
18	ZC3H14 (GeneID 79882)	1	0.35	1.5	inactive
19	MFAP5 (GeneID 8076)	1	0.5	1.27	inactive
20	CLIC6 (GeneID 54102)	1	0.64	0.66	inactive
21	PCDHGA4 (GeneID 56111)	1	0.72	0.5	inactive
22	IGFL4 (GeneID 444882)	1	0.73	0.72	inactive
23	BRWD1 (GeneID 54014)	1	0.51	0.79	inactive
24	APOL4 (GeneID 80832)	1	0.63	1.27	inactive
25	OR10C1 (GeneID 442194)	1	0.43	1.23	inactive
26	NPEPL1 (GeneID 79716)	1	0.13	0.36	active
27	GTPBP10 (GeneID 85865)	1	0.71	0.7	inactive
28	OBSCN (GeneID 84033)	1	0.39	1.44	inactive
29	OBSCN (GeneID 84033)	2	0.51	1.17	inactive
30	CBR4 (GeneID 84869)	1	0.53	0.62	inactive
31	CACNA1A (GeneID 773)	1	0.08	1.29	inactive
32	ACAP1 (GeneID 9744)	1	0.98	0.83	inactive
33	AP3S1 (GeneID 1176)	1	0.42	0.88	inactive
34	NDUFB6 (GeneID 4712)	1	0.3	1.54	inactive

Entries above with an active call, once more:
gene	pool no.	cell gain with vemurafenib	lactate per cell with vemurafenib	activity call
NPEPL1 (GeneID 79716)	1	0.13	0.36	active
